Source: the supplement of paper PMC4604168 (melanoma cell lines)
The list shows a part of the results. Many values rest on one well or one pass, so single values are uncertain.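 Imaging used 1,536-well plates; nuclei positive for cleaved PARP by antibody were divided by total DNA-stained nuclei to yield the apoptosis fraction. Doses for screening kept most cells viable, and cell lines differ markedly in resting and induced cleaved-PARP levels.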

Key:
Assay in all cases: cleaved PARP positive nuclei fraction relative to DMSO control; melanoma cells; higher = more apoptosis
Conditions in all cases: library dose: low library concentration; 72 h
501Mel = test system: 501Mel
A101D = test system: A101D
A2058 = test system: A2058
C32 = test system: C32
CBRC008 = test system: CBRC008 (line from a melanoma biopsy)
CBRC014 = test system: CBRC014 (line from a melanoma biopsy)
CBRC016 = test system: CBRC016 (line from a melanoma biopsy)
CBRC017 = test system: CBRC017 (line from a melanoma biopsy)
COLO792 = test system: COLO792
COLO800 = test system: COLO800
COLO829 = test system: COLO829
G361 = test system: G361
IPC-298 = test system: IPC-298
IST-MEL1 = test system: IST-MEL1
LB2518-MEL = test system: LB2518-MEL
LOXIMVI = test system: LOXIMVI

Row | Compound | cleaved PARP positive nuclei fraction (501Mel) | cleaved PARP positive nuclei fraction (A101D) | cleaved PARP positive nuclei fraction (A2058) | cleaved PARP positive nuclei fraction (C32) | cleaved PARP positive nuclei fraction (CBRC008) | cleaved PARP positive nuclei fraction (CBRC014) | cleaved PARP positive nuclei fraction (CBRC016) | cleaved PARP positive nuclei fraction (CBRC017) | cleaved PARP positive nuclei fraction (COLO792) | cleaved PARP positive nuclei fraction (COLO800) | cleaved PARP positive nuclei fraction (COLO829) | cleaved PARP positive nuclei fraction (G361) | cleaved PARP positive nuclei fraction (IPC-298) | cleaved PARP positive nuclei fraction (IST-MEL1) | cleaved PARP positive nuclei fraction (LB2518-MEL) | cleaved PARP positive nuclei fraction (LOXIMVI)
1 | CCCCCCCCCCCCCCCCCCOP(=O)([O-])OC1CC[N+](C)(C)CC1 [Perifosine] + CCN(CC)CCCCNc1ncc2cc(-c3cc(OC)cc(OC)c3)c(NC(=O)NC(C)(C)C)nc2n1 [PD173074] (first compound 0.4 µM, partner dose 0.1 µM) | 109% | 17.3% | 44.8% | 148% | 47.5% | 85.8% | 54.1% | 60.4% | 55.9% | 43.6% | 74.2% | 71.4% | 86.7% | 110% | 46.5% | 85.9%
2 | O=C(/C=C/c1cccnc1)NCCCCC1CCN(C(=O)c2ccccc2)CC1 + COc1ccc2c(c1)CCC1C2CCC2(C)C(NCCCCCCN3C(=O)C=CC3=O)CCC12 [U73122] (first compound 0.01 µM, partner dose 0.4 µM) | 149% | 10.9% | 76.4% | 99.5% | 2670% | 149% | 659% | 360% | 659% | 259% | 457% | 3790% | 376% | 101% | 133% | 23.6%
3 | Cc1cn(-c2cc(NC(=O)c3ccc(C)c(Nc4nccc(-c5cccnc5)n4)c3)cc(C(F)(F)F)c2)cn1 [nilotinib] + O=C(O)C(=O)Nc1sc2c(c1C(=O)O)CCNC2 [TCS401] (first compound 0.2 µM, partner dose 1.66667 µM) | 54.2% | 25.8% | 24.9% | 86.9% | 43.2% | 146% | 83.3% | 79.9% | 113% | 104% | 74.4% | 96.2% | 181% | 140% | 45.3% | 183%
4 | Cc1cn(-c2cc(NC(=O)c3ccc(C)c(Nc4nccc(-c5cccnc5)n4)c3)cc(C(F)(F)F)c2)cn1 [nilotinib] + COC(=O)c1sccc1S(=O)(=O)Nc1ccc(Nc2ccccc2)cc1OC [GSK0660] (first compound 0.2 µM, partner dose 1 µM) | 51.6% | 13.9% | 80.3% | 78.8% | 63.3% | 93.7% | 41.2% | 185% | 54.2% | 74.2% | 82.7% | 69.5% | 90.3% | 451% | 67% | 85.1%
5 | Cc1cn(-c2cc(NC(=O)c3ccc(C)c(Nc4nccc(-c5cccnc5)n4)c3)cc(C(F)(F)F)c2)cn1 [nilotinib] + COc1ccc2c(c1)CCC1C2CCC2(C)C(NCCCCCCN3C(=O)C=CC3=O)CCC12 [U73122] (first compound 0.2 µM, partner dose 0.4 µM) | 76.2% | 40.1% | 180% | 271% | 51.8% | 80.2% | 79% | 68.6% | 100% | 67.9% | 162% | 165% | 46.6% | 168% | 126% | 108%
6 | Cc1ccc(Nc2nccc(N(C)c3ccc4c(C)n(C)nc4c3)n2)cc1S(N)(=O)=O [Pazopanib] + Oc1nc(-c2ccc(C(F)(F)F)cc2)nc2c1CSCC2 [XAV939] (first compound 0.4 µM, partner dose 2 µM) | 85.2% | 39% | 65.9% | 65.9% | 114% | 108% | 53.6% | 69.4% | 31.3% | 89.1% | 139% | 142% | 54.6% | 108% | 77.1% | 121%
7 | CCCCCCCCCCCCCCCCCCOP(=O)([O-])OC1CC[N+](C)(C)CC1 [Perifosine] + O=C(O)C(=O)Nc1sc2c(c1C(=O)O)CCNC2 [TCS401] (first compound 0.4 µM, partner dose 1.66667 µM) | 72.9% | 29.6% | 35% | 34% | 89.8% | 88.8% | 24.5% | 73% | 71.6% | 97.1% | 90.3% | 160% | 140% | 40% | 119% | 83.3%
8 | COc1cc([C@@H]2c3cc4c(cc3[C@@H](O[C@@H]3O[C@@H]5CO[C@@H](C)O[C@H]5[C@H](O)[C@H]3O)[C@H]3COC(=O)[C@H]23)OCO4)cc(OC)c1O [etoposide] + O=S(=O)(c1ccccc1)N(CC(F)(F)F)c1ccc(C(O)(C(F)(F)F)C(F)(F)F)cc1 [T0901317] (first compound 0.02 µM, partner dose 1.4 µM) | 71.3% | 33.6% | 22.2% | 46.7% | 69.5% | 112% | 82.2% | 67.9% | 62.7% | 38% | 205% | 121% | 196% | 97.3% | 33.6% | 17.2%
9 | O=c1[nH]nc(Sc2ncc([N+](=O)[O-])s2)n1-c1ccc2c(c1)OCCO2 + O=S(=O)(c1ccccc1)N(CC(F)(F)F)c1ccc(C(O)(C(F)(F)F)C(F)(F)F)cc1 [T0901317] (first compound 0.2 µM, partner dose 1.4 µM) | 82.9% | 75.5% | 79.7% | 85.9% | 81.9% | 105% | 59.1% | 116% | 98.4% | 98.8% | 78.6% | 184% | 32.6% | 186% | 99.5% | 161%
10 | O=c1[nH]nc(Sc2ncc([N+](=O)[O-])s2)n1-c1ccc2c(c1)OCCO2 + O=C1NC(=O)/C(=C/c2ccc(-c3ccc(F)cc3O)o2)S1 [AS252424] (first compound 0.2 µM, partner dose 1 µM) | 72.9% | 28.1% | 50.5% | 188% | 30.9% | 101% | 45.5% | 88.8% | 87.7% | 35.6% | 38.4% | 148% | 92.5% | 138% | 79.7% | 135%
11 | O=c1[nH]nc(Sc2ncc([N+](=O)[O-])s2)n1-c1ccc2c(c1)OCCO2 + COc1cc(N2CCC(N3CCN(C)CC3)CC2)ccc1Nc1ncc(Cl)c(Nc2ccccc2S(=O)(=O)C(C)C)n1 [NVP-TAE684] (first compound 0.2 µM, partner dose 0.08 µM) | 60.7% | 26.9% | 106% | 87.4% | 149% | 103% | 28.5% | 47.9% | 67.1% | 86.9% | 173% | 47.8% | 40.7% | 136% | 221% | 132%
12 | CC[C@]1(O)C[C@H]2CN(CCc3c([nH]c4ccccc34)[C@@](C(=O)OC)(c3cc4c(cc3OC)N(C=O)[C@H]3[C@@](O)(C(=O)OC)[C@H](OC(C)=O)[C@]5(CC)C=CCN6CC[C@]43[C@@H]65)C2)C1 [vincristine] + O=S(=O)(c1ccccc1)N(CC(F)(F)F)c1ccc(C(O)(C(F)(F)F)C(F)(F)F)cc1 [T0901317] (first compound 0.0001 µM, partner dose 1.4 µM) | 83.1% | 66.7% | 1060% | 248% | 178% | 110% | 107% | 68.8% | 98.3% | 89.8% | 127% | 107% | 84.1% | 25.8% | 84% | 158%
13 | CCCCCCCCCCCCCCCCCCOP(=O)([O-])OC1CC[N+](C)(C)CC1 [Perifosine] + Cc1cc([N+](=O)[O-])ccc1NS(=O)(=O)c1cc(Cl)ccc1Cl [FH535] (first compound 0.4 µM, partner dose 1 µM) | 72% | 8.23% | 100% | 140% | 510% | 256% | 1430% | 257% | 42.3% | 93.8% | 57.9% | 135% | 208% | 166% | 145% | 101%
14 | Cc1cc(Nc2cc(N3CCN(C)CC3)nc(Sc3ccc(NC(=O)C4CC4)cc3)n2)n[nH]1 [Tozasertib] + O=C(O)C(=O)Nc1sc2c(c1C(=O)O)CCNC2 [TCS401] (first compound 0.006 µM, partner dose 1.66667 µM) | 58.4% | 15.9% | 74.2% | 168% | 39.6% | 72.4% | 59.9% | 114% | 79% | 137% | 502% | 82.8% | 91.4% | 56.2% | 88.4% | 86.2%
15 | COc1cc([C@@H]2c3cc4c(cc3[C@@H](O[C@@H]3O[C@@H]5CO[C@@H](C)O[C@H]5[C@H](O)[C@H]3O)[C@H]3COC(=O)[C@H]23)OCO4)cc(OC)c1O [etoposide] + CCc1ccc(CCOc2ccc(CC3SC(=O)NC3=O)cc2)nc1 [pioglitazone] (first compound 0.02 µM, partner dose 2 µM) | 118% | 24% | 84.7% | 183% | 90.1% | 88.8% | 54.9% | 88.5% | 154% | 68.1% | 48.5% | 230% | 182% | 128% | 64.2% | 233%
16 | Cc1cn(-c2cc(NC(=O)c3ccc(C)c(Nc4nccc(-c5cccnc5)n4)c3)cc(C(F)(F)F)c2)cn1 [nilotinib] + O=c1cc(-c2cccc3c2Sc2ccccc2S3)oc(N2CCOCC2)c1 [KU55933] (first compound 0.2 µM, partner dose 1 µM) | 183% | 14.1% | 84.2% | 132% | 159% | 112% | 79.3% | 76% | 77.7% | 68.9% | 48.9% | 126% | 34.6% | 117% | 28.5% | 50.8%
17 | O=C(/C=C/c1cccnc1)NCCCCC1CCN(C(=O)c2ccccc2)CC1 + O=C(Nc1ccccc1)c1cc([N+](=O)[O-])ccc1Cl [GW9662] (first compound 0.01 µM, partner dose 2 µM) | 284% | 27.9% | 104% | 73.7% | 3840% | 93.7% | 596% | 364% | 463% | 400% | 262% | 3700% | 264% | 79.8% | 217% | 177%
18 | COc1cc([C@@H]2c3cc4c(cc3[C@@H](O[C@@H]3O[C@@H]5CO[C@@H](C)O[C@H]5[C@H](O)[C@H]3O)[C@H]3COC(=O)[C@H]23)OCO4)cc(OC)c1O [etoposide] + Cn1cc(/C=C2\C(=O)Nc3cccnc32)c2ccccc21 [GW441756] (first compound 0.02 µM, partner dose 0.4 µM) | 61.6% | 28.7% | 74.7% | 95% | 97.3% | 112% | 108% | 270% | 161% | 149% | 39.9% | 172% | 122% | 74% | 211% | 165%

5 neighbouring entries from above, for reference:
Row | Compound | cleaved PARP positive nuclei fraction (501Mel) | cleaved PARP positive nuclei fraction (A101D) | cleaved PARP positive nuclei fraction (A2058) | cleaved PARP positive nuclei fraction (C32) | cleaved PARP positive nuclei fraction (CBRC008) | cleaved PARP positive nuclei fraction (CBRC014) | cleaved PARP positive nuclei fraction (CBRC016) | cleaved PARP positive nuclei fraction (CBRC017) | cleaved PARP positive nuclei fraction (COLO792) | cleaved PARP positive nuclei fraction (COLO800) | cleaved PARP positive nuclei fraction (COLO829) | cleaved PARP positive nuclei fraction (G361) | cleaved PARP positive nuclei fraction (IPC-298) | cleaved PARP positive nuclei fraction (IST-MEL1) | cleaved PARP positive nuclei fraction (LB2518-MEL) | cleaved PARP positive nuclei fraction (LOXIMVI)
8 | COc1cc([C@@H]2c3cc4c(cc3[C@@H](O[C@@H]3O[C@@H]5CO[C@@H](C)O[C@H]5[C@H](O)[C@H]3O)[C@H]3COC(=O)[C@H]23)OCO4)cc(OC)c1O [etoposide] + O=S(=O)(c1ccccc1)N(CC(F)(F)F)c1ccc(C(O)(C(F)(F)F)C(F)(F)F)cc1 [T0901317] (first compound 0.02 µM, partner dose 1.4 µM) | 71.3% | 33.6% | 22.2% | 46.7% | 69.5% | 112% | 82.2% | 67.9% | 62.7% | 38% | 205% | 121% | 196% | 97.3% | 33.6% | 17.2%
9 | O=c1[nH]nc(Sc2ncc([N+](=O)[O-])s2)n1-c1ccc2c(c1)OCCO2 + O=S(=O)(c1ccccc1)N(CC(F)(F)F)c1ccc(C(O)(C(F)(F)F)C(F)(F)F)cc1 [T0901317] (first compound 0.2 µM, partner dose 1.4 µM) | 82.9% | 75.5% | 79.7% | 85.9% | 81.9% | 105% | 59.1% | 116% | 98.4% | 98.8% | 78.6% | 184% | 32.6% | 186% | 99.5% | 161%
10 | O=c1[nH]nc(Sc2ncc([N+](=O)[O-])s2)n1-c1ccc2c(c1)OCCO2 + O=C1NC(=O)/C(=C/c2ccc(-c3ccc(F)cc3O)o2)S1 [AS252424] (first compound 0.2 µM, partner dose 1 µM) | 72.9% | 28.1% | 50.5% | 188% | 30.9% | 101% | 45.5% | 88.8% | 87.7% | 35.6% | 38.4% | 148% | 92.5% | 138% | 79.7% | 135%
11 | O=c1[nH]nc(Sc2ncc([N+](=O)[O-])s2)n1-c1ccc2c(c1)OCCO2 + COc1cc(N2CCC(N3CCN(C)CC3)CC2)ccc1Nc1ncc(Cl)c(Nc2ccccc2S(=O)(=O)C(C)C)n1 [NVP-TAE684] (first compound 0.2 µM, partner dose 0.08 µM) | 60.7% | 26.9% | 106% | 87.4% | 149% | 103% | 28.5% | 47.9% | 67.1% | 86.9% | 173% | 47.8% | 40.7% | 136% | 221% | 132%
12 | CC[C@]1(O)C[C@H]2CN(CCc3c([nH]c4ccccc34)[C@@](C(=O)OC)(c3cc4c(cc3OC)N(C=O)[C@H]3[C@@](O)(C(=O)OC)[C@H](OC(C)=O)[C@]5(CC)C=CCN6CC[C@]43[C@@H]65)C2)C1 [vincristine] + O=S(=O)(c1ccccc1)N(CC(F)(F)F)c1ccc(C(O)(C(F)(F)F)C(F)(F)F)cc1 [T0901317] (first compound 0.0001 µM, partner dose 1.4 µM) | 83.1% | 66.7% | 1060% | 248% | 178% | 110% | 107% | 68.8% | 98.3% | 89.8% | 127% | 107% | 84.1% | 25.8% | 84% | 158%
